# Reference: the supplement of paper PMC8728848
# This is one part of the list.
# B1: Clec39 (Caenorhabditis elegans) (protein)
# chain: MTSFYDNSSSSSKPVPLKTSRAQKIQILIFDNWKLILYGAISTLILVLAIMFSTLFFALPAANCDENSEPTKYYTTNAEITTTITTTNQKTTSTASSHLTTISSSATQIYSESSSSSTSQSTFTQSPPEISTTTIAPSDFSCQHGFTLVNNKCWKLVTSNQARPDADKICNGYGGATLFSIKSEQDNRAMIHFVKGQDIDFLWSGLLCSAGEPISCIWDIENGSTANYSNFADGFPNIVYGNCVYFITSGDEAGQWGNEQCGQVMNFVCELPATFQGKDGCKNNYEKSCYLRFDLNLTVPQAQNFCLEKCANLVSIHSANEVRFIMTIYDFIGEILIGALAPAQDFIYWLDGTPANYNNLKFFYNSTCVHMTVAPGMQNVGKWFTRFCTETGKFLCKRSIKNSCT
# How the values were obtained:
# Experiment in all cases: glycan array binding signal (z-score within array); higher = stronger binding
# Conditions in all cases: glycan notation: IUPAC condensed, linker removed
# [1] = target: Gal(b1-4)GlcNAc(b1-3)Gal(b1-4)Glc
# Summary of the method: (§1)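 The binding signal is a Z-score computed within each array. Data were drawn from 3228 arrays in the Consortium for Functional Glycomics database, restricted to those with a known protein sequence. Scores were averaged over arrays of the same protein sequence at different concentrations or buffers, and over linkers, and negative values can be taken as non-binding.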
# [2] = target: Gal(b1-4)GlcNAc(b1-3)Gal(b1-4)GlcNAc
# Summary of the method: as §1
# [3] = target: Gal(b1-4)GlcNAc(b1-3)Gal(b1-4)GlcNAc(b1-2)Man(a1-3)[Gal(b1-4)GlcNAc(b1-3)Gal(b1-4)GlcNAc(b1-2)Man(a1-6)]Man(b1-4)GlcNAc(b1-4)GlcNAc
# Summary of the method: as §1
# [4] = target: Gal(b1-4)GlcNAc(b1-3)Gal(b1-4)GlcNAc(b1-2)Man(a1-3)[Gal(b1-4)GlcNAc(b1-3)Gal(b1-4)GlcNAc(b1-2)Man(a1-6)]Man(b1-4)GlcNAc(b1-4)[Fuc(a1-6)]GlcNAc
# Summary of the method: as §1
# [5] = target: Gal(b1-4)GlcNAc(b1-3)Gal(b1-4)GlcNAc(b1-2)[Gal(b1-4)GlcNAc(b1-3)Gal(b1-4)GlcNAc(b1-6)]Man(a1-6)[Gal(b1-4)GlcNAc(b1-3)Gal(b1-4)GlcNAc(b1-2)Man(a1-3)]Man(b1-4)GlcNAc(b1-4)GlcNAc
# Summary of the method: as §1
# [6] = target: Gal(b1-4)GlcNAc(b1-3)Gal(b1-4)GlcNAc(b1-2)[Gal(b1-4)GlcNAc(b1-3)Gal(b1-4)GlcNAc(b1-6)]Man(a1-6)[Gal(b1-4)GlcNAc(b1-3)Gal(b1-4)GlcNAc(b1-2)Man(a1-3)]Man(b1-4)GlcNAc(b1-4)[Fuc(a1-6)]GlcNAc
# Summary of the method: as §1
# [7] = target: Gal(b1-4)GlcNAc(b1-3)Gal(b1-4)GlcNAc(b1-3)Gal(b1-4)GlcNAc
# Summary of the method: as §1
# [8] = target: Gal(b1-4)GlcNAc(b1-3)Gal(b1-4)GlcNAc(b1-3)Gal(b1-4)GlcNAc(b1-2)Man(a1-3)[Gal(b1-4)GlcNAc(b1-3)Gal(b1-4)GlcNAc(b1-3)Gal(b1-4)GlcNAc(b1-2)Man(a1-6)]Man(b1-4)GlcNAc(b1-4)GlcNAc
# Summary of the method: as §1
# [9] = target: Gal(b1-4)GlcNAc(b1-3)Gal(b1-4)GlcNAc(b1-3)Gal(b1-4)GlcNAc(b1-2)Man(a1-3)[Gal(b1-4)GlcNAc(b1-3)Gal(b1-4)GlcNAc(b1-3)Gal(b1-4)GlcNAc(b1-2)Man(a1-6)]Man(b1-4)GlcNAc(b1-4)[Fuc(a1-6)]GlcNAc
# Summary of the method: as §1
# [10] = target: Gal(b1-4)GlcNAc(b1-3)Gal(b1-4)GlcNAc(b1-3)Gal(b1-4)GlcNAc(b1-2)[Gal(b1-4)GlcNAc(b1-3)Gal(b1-4)GlcNAc(b1-3)Gal(b1-4)GlcNAc(b1-6)]Man(a1-6)[Gal(b1-4)GlcNAc(b1-3)Gal(b1-4)GlcNAc(b1-3)Gal(b1-4)GlcNAc(b1-2)Man(a1-3)]Man(b1-4)GlcNAc(b1-4)[Fuc(a1-6)]GlcNAc
# Summary of the method: as §1
# [11] = target: Gal(b1-4)GlcNAc(b1-3)Gal(b1-4)GlcNAc(b1-3)Gal(b1-4)GlcNAc(b1-3)Gal(b1-4)GlcNAc(b1-2)Man(a1-3)[Gal(b1-4)GlcNAc(b1-3)Gal(b1-4)GlcNAc(b1-3)Gal(b1-4)GlcNAc(b1-3)Gal(b1-4)GlcNAc(b1-2)Man(a1-6)]Man(b1-4)GlcNAc(b1-4)GlcNAc
# Summary of the method: as §1
# [12] = target: Gal(b1-4)GlcNAc(b1-3)Gal(b1-4)GlcNAc(b1-3)Gal(b1-4)GlcNAc(b1-3)Gal(b1-4)GlcNAc(b1-2)Man(a1-3)[Gal(b1-4)GlcNAc(b1-3)Gal(b1-4)GlcNAc(b1-3)Gal(b1-4)GlcNAc(b1-3)Gal(b1-4)GlcNAc(b1-2)Man(a1-6)]Man(b1-4)GlcNAc(b1-4)[Fuc(a1-6)]GlcNAc
# Summary of the method: as §1
# [13] = target: Gal(b1-4)GlcNAc(b1-3)Gal(b1-4)GlcNAc(b1-3)Gal(b1-4)GlcNAc(b1-3)Gal(b1-4)GlcNAc(b1-2)[Gal(b1-4)GlcNAc(b1-3)Gal(b1-4)GlcNAc(b1-3)Gal(b1-4)GlcNAc(b1-3)Gal(b1-4)GlcNAc(b1-6)]Man(a1-6)[Gal(b1-4)GlcNAc(b1-3)Gal(b1-4)GlcNAc(b1-3)Gal(b1-4)GlcNAc(b1-3)Gal(b1-4)GlcNAc(b1-2)Man(a1-3)]Man(b1-4)GlcNAc(b1-4)[Fuc(a1-6)]GlcNAc
# Summary of the method: as §1
# [14] = target: Gal(b1-4)GlcNAc(b1-3)Gal(b1-4)GlcNAc(b1-3)Gal(b1-4)GlcNAc(b1-3)Gal(b1-4)GlcNAc(b1-3)Gal(b1-4)GlcNAc(b1-2)Man(a1-3)[Gal(b1-4)GlcNAc(b1-3)Gal(b1-4)GlcNAc(b1-3)Gal(b1-4)GlcNAc(b1-3)Gal(b1-4)GlcNAc(b1-3)Gal(b1-4)GlcNAc(b1-2)Man(a1-6)]Man(b1-4)GlcNAc(b1-4)GlcNAc
# Summary of the method: as §1
# [15] = target: Gal(b1-4)GlcNAc(b1-3)Gal(b1-4)GlcNAc(b1-3)Gal(b1-4)GlcNAc(b1-3)Gal(b1-4)GlcNAc(b1-3)Gal(b1-4)GlcNAc(b1-2)Man(a1-3)[Gal(b1-4)GlcNAc(b1-3)Gal(b1-4)GlcNAc(b1-3)Gal(b1-4)GlcNAc(b1-3)Gal(b1-4)GlcNAc(b1-3)Gal(b1-4)GlcNAc(b1-2)Man(a1-6)]Man(b1-4)GlcNAc(b1-4)[Fuc(a1-6)]GlcNAc
# Summary of the method: as §1
# [16] = target: Gal(b1-4)GlcNAc(b1-3)Gal(b1-4)GlcNAc(b1-3)Gal(b1-4)GlcNAc(b1-3)Gal(b1-4)GlcNAc(b1-3)Gal(b1-4)GlcNAc(b1-2)[Gal(b1-4)GlcNAc(b1-3)Gal(b1-4)GlcNAc(b1-3)Gal(b1-4)GlcNAc(b1-3)Gal(b1-4)GlcNAc(b1-3)Gal(b1-4)GlcNAc(b1-6)]Man(a1-6)[Gal(b1-4)GlcNAc(b1-3)Gal(b1-4)GlcNAc(b1-3)Gal(b1-4)GlcNAc(b1-3)Gal(b1-4)GlcNAc(b1-3)Gal(b1-4)GlcNAc(b1-2)Man(a1-3)]Man(b1-4)GlcNAc(b1-4)[Fuc(a1-6)]GlcNAc
# Summary of the method: as §1
# [17] = target: Gal(b1-4)GlcNAc(b1-3)Gal(b1-4)GlcNAc(b1-3)Gal(b1-4)GlcNAc(b1-3)Gal(b1-4)GlcNAc(b1-3)Gal(b1-4)GlcNAc(b1-3)Gal(b1-4)GlcNAc(b1-2)Man(a1-3)[Gal(b1-4)GlcNAc(b1-3)Gal(b1-4)GlcNAc(b1-3)Gal(b1-4)GlcNAc(b1-3)Gal(b1-4)GlcNAc(b1-3)Gal(b1-4)GlcNAc(b1-3)Gal(b1-4)GlcNAc(b1-2)Man(a1-6)]Man(b1-4)GlcNAc(b1-4)GlcNAc
# Summary of the method: as §1
# [18] = target: Gal(b1-4)GlcNAc(b1-3)Gal(b1-4)GlcNAc(b1-3)GalNAc
# Summary of the method: as §1
# [19] = target: Gal(b1-4)GlcNAc(b1-3)Gal(b1-4)GlcNAc(b1-3)[Gal(b1-4)GlcNAc(b1-3)Gal(b1-4)GlcNAc(b1-6)]GalNAc
# Summary of the method: as §1
binder,measurement,setting,value
B1,glycan array binding signal (z-score),[1],0.801
same,glycan array binding signal (z-score),[2],0.14
same,glycan array binding signal (z-score),[3],0.623
same,glycan array binding signal (z-score),[4],1.46
same,glycan array binding signal (z-score),[5],0.982
same,glycan array binding signal (z-score),[6],0.173
same,glycan array binding signal (z-score),[7],-0.007
same,glycan array binding signal (z-score),[8],0.198
same,glycan array binding signal (z-score),[9],-0.521
same,glycan array binding signal (z-score),[10],0.201
same,glycan array binding signal (z-score),[11],1.3
same,glycan array binding signal (z-score),[12],1.98
same,glycan array binding signal (z-score),[13],-0.037
same,glycan array binding signal (z-score),[14],3.63
same,glycan array binding signal (z-score),[15],1.01
same,glycan array binding signal (z-score),[16],1.56
same,glycan array binding signal (z-score),[17],-0.636
same,glycan array binding signal (z-score),[18],0.853
same,glycan array binding signal (z-score),[19],-0.36

# A second format for part of the listing above:
binder | measurement | setting | value
B1 | glycan array binding signal (z-score) | [3] | 0.623
same | glycan array binding signal (z-score) | [17] | -0.636
